Measured values from the supplement of paper PMC10849652.
The list shows a part of the results.

Chains of the proteins cited; added tags and fusions are not shown. Lines headed by an entry give the natural chain unless they say otherwise; changes in a name come on top.
UniProt Q14393: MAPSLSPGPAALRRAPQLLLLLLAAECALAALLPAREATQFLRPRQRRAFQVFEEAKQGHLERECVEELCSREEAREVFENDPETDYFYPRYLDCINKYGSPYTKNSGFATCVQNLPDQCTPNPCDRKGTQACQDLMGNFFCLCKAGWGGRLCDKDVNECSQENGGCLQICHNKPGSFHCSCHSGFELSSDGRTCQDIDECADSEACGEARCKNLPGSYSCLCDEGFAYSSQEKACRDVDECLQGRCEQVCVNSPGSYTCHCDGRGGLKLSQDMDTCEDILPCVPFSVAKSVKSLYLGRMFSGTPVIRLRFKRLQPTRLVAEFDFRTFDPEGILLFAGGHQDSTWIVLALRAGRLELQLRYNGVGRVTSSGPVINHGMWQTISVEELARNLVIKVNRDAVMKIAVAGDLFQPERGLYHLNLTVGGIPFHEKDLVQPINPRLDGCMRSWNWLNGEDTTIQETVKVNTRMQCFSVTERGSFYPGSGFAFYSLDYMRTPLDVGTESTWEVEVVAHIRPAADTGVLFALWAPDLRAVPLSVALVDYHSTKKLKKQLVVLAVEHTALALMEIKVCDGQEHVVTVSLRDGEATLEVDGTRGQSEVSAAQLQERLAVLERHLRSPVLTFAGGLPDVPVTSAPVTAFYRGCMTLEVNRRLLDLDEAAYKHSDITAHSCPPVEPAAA
UniProt Q04446: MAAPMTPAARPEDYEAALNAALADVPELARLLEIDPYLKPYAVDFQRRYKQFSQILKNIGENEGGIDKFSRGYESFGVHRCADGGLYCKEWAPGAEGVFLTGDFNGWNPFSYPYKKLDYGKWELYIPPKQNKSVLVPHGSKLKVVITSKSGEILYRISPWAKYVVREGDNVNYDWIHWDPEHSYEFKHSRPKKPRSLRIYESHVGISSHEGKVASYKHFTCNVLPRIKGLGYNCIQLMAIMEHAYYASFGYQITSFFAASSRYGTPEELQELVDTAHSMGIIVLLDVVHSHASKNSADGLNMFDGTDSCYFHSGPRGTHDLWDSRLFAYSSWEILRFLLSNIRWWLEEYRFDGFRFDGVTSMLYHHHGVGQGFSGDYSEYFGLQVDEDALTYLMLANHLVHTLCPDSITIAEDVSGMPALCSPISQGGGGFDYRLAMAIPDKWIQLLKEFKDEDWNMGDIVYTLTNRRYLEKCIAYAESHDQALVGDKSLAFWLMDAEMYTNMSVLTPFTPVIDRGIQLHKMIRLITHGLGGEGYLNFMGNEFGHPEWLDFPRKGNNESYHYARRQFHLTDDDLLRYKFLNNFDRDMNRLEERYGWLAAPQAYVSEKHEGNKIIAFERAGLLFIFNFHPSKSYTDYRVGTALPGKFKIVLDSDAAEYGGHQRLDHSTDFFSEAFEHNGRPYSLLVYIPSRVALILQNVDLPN
UniProt Q8IXK2: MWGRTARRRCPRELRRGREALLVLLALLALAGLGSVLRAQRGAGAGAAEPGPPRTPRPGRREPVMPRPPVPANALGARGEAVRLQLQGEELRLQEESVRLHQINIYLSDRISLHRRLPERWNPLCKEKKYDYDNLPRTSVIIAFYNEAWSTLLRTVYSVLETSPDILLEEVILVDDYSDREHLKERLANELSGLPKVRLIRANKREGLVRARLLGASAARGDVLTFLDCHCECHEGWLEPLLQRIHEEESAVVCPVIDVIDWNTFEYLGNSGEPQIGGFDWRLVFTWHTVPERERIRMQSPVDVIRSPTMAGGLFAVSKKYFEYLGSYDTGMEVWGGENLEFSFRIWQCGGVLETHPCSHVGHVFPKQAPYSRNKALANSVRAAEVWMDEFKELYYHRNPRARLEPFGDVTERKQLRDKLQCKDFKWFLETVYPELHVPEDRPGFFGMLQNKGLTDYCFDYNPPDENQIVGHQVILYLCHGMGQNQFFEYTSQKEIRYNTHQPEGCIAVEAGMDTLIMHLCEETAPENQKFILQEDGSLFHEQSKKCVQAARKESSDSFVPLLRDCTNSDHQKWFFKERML
UniProt Q92538, whole entry, looked up: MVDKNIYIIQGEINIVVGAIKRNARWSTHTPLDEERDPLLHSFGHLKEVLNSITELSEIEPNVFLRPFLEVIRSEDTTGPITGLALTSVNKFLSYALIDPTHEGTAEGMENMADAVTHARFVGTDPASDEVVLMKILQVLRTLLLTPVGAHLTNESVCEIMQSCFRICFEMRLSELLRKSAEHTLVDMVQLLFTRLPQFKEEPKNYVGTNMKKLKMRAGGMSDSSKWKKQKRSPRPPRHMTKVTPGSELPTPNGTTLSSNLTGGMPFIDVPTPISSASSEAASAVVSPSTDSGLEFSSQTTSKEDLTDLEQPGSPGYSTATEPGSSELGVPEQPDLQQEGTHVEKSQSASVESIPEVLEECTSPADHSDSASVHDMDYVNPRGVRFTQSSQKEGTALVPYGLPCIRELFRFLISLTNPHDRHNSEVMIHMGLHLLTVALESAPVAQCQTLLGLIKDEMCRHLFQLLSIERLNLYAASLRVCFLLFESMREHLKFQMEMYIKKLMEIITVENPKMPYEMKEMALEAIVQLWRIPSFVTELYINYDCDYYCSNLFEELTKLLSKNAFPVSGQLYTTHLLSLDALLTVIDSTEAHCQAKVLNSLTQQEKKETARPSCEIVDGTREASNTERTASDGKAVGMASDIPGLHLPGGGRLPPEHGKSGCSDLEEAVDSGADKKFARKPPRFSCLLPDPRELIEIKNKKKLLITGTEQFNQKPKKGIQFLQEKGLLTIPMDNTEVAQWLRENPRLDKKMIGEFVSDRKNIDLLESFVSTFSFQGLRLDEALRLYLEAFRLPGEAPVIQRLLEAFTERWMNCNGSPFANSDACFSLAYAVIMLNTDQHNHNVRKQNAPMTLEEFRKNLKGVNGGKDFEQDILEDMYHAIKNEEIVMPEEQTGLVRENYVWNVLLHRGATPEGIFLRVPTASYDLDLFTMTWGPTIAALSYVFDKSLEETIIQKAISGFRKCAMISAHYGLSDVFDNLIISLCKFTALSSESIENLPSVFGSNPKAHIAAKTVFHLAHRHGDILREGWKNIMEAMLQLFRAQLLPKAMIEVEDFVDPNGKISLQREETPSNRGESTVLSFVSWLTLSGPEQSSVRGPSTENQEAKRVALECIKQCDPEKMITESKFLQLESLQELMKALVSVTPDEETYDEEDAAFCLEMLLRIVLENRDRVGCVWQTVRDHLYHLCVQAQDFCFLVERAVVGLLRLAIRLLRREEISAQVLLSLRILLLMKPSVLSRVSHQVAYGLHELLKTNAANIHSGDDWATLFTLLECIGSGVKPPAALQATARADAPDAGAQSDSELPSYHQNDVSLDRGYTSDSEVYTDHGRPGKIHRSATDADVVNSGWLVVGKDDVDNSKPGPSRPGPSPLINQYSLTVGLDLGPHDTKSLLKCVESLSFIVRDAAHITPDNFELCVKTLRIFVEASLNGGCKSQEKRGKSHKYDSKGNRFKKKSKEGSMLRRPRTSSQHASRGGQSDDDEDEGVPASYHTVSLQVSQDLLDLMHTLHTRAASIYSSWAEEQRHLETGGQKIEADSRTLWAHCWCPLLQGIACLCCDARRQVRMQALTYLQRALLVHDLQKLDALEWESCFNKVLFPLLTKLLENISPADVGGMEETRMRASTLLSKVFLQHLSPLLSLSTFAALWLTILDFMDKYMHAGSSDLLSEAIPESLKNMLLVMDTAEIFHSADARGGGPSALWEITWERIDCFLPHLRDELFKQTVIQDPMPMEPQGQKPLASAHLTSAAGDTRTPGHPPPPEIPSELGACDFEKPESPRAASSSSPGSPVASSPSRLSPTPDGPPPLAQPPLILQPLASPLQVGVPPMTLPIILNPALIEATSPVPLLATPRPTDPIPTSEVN
UniProt Q96QD9: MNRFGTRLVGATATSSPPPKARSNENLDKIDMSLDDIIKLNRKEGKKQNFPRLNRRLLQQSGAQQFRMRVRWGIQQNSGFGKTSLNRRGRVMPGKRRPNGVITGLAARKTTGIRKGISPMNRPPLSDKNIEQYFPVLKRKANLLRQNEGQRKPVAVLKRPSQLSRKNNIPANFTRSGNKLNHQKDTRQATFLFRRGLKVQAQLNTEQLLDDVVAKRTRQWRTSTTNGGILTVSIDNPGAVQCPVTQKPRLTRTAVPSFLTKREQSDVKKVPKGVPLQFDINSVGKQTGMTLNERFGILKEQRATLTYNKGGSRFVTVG
UniProt Q06547, whole entry, looked up: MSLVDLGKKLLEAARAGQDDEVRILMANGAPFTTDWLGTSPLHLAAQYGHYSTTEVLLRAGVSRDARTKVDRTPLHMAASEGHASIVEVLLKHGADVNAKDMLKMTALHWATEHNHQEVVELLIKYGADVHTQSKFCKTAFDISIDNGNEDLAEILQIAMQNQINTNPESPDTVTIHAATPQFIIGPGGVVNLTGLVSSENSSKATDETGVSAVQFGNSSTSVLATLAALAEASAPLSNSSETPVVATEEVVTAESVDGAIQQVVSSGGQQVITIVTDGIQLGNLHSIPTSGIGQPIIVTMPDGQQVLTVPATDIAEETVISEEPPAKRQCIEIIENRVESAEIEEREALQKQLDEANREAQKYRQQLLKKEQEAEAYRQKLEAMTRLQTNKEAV
UniProt P22083, whole entry, looked up: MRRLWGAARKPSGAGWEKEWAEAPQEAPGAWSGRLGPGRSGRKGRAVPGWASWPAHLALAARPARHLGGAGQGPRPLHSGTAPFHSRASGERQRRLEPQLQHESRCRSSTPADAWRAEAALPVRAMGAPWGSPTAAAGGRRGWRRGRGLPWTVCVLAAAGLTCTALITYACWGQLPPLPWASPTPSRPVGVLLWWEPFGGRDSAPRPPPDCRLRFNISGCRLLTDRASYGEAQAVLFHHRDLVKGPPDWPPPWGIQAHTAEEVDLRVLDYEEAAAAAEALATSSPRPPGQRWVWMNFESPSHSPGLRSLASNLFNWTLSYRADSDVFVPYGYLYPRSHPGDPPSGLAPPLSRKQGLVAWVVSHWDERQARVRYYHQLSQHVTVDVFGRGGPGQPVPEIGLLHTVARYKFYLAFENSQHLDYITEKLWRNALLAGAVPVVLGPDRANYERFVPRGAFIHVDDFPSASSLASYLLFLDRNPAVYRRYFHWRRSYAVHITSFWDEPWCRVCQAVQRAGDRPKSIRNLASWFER
UniProt Q8TET4: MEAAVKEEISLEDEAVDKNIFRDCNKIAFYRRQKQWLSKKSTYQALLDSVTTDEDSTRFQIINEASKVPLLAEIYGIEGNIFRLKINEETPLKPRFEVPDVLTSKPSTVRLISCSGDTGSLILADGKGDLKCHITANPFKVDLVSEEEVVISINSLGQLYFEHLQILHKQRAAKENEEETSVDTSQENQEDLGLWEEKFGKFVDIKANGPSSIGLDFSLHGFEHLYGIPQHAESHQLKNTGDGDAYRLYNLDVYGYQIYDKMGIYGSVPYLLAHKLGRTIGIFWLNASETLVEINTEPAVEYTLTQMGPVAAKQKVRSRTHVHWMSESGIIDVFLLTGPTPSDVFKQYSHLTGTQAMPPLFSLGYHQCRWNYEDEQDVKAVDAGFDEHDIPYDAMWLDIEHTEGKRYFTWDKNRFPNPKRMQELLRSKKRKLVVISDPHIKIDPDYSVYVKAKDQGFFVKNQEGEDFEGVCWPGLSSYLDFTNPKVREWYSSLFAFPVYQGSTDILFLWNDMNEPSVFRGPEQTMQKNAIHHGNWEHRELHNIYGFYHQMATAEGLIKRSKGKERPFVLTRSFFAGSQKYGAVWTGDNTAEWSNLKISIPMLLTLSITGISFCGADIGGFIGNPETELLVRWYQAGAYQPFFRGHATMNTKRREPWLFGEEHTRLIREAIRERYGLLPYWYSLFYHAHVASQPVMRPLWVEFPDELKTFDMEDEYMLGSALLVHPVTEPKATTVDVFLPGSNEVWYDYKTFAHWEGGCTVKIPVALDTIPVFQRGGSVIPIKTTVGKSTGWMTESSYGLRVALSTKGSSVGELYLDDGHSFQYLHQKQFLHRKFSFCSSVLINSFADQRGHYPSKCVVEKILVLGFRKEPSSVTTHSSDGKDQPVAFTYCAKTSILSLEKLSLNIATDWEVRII
UniProt Q05932: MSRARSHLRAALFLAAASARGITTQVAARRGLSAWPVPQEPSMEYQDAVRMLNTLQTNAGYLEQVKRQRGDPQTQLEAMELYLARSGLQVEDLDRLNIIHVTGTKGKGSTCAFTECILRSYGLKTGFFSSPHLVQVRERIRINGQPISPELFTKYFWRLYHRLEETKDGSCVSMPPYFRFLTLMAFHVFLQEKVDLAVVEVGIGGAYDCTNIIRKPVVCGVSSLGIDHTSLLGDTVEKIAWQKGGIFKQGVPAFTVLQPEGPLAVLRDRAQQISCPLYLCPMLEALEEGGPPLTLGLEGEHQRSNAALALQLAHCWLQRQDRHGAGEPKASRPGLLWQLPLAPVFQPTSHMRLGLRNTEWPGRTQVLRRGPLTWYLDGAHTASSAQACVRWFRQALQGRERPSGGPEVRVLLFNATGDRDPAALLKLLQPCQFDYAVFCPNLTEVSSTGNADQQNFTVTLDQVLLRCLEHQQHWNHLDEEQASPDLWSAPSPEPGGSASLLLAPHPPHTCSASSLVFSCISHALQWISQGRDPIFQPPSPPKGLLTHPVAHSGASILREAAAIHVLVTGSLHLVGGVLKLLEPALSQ

What was measured:
Experiment in all cases: log2 fold change, soluble protein after heating vs DMSO (PISA); higher = thermal stabilisation; K562 cells, 10 uM, 30 min; active = over 0.2 and 3.5 SD of the protein, either way, in both replicates (recomputed)
[1] = compound: CC[C@@H]1C(=O)N(C)c2cnc(Nc3ccc(C(=O)NC4CCN(C)CC4)cc3OC)nc2N1C1CCCC1
In short: (§1)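 For each measurement, 10 μM compound was applied for 30 min to K562 cells at 2×10^6 cells/mL. Aliquots were heated for 3 min across 48°C-58°C, pooled, and extracted in PBS with 0.5% NP-40 at 4°C; the supernatant after 21,000xg for 90 min was soluble protein. This was quantified by TMTpro 16plex LC-MS/MS with channel sums equalised, and thermal stability was reported relative to control samples from duplicates, on a log2 fold-change scale.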

[2] = compound: CC[C@H](C)N1C=C(C2=C(C=C(C=C21)C3=CN=C(C=C3)N4CCNCC4)C(=O)NCC5=C(C=C(NC5=O)C)C)C
In short: as §1

[3] = compound: CC[C@H](C)[C@@H](C(=O)N[C@@H]([C@@H](C)O)C(=O)N[C@@H](CC(C)C)C(=O)[C@]1(CO1)C)NC(=O)[C@H]([C@@H](C)CC)N(C)C(=O)C [epoxomicin]
In short: as §1

[4] = compound: CCn1cc(-c2ccnc3[nH]c(-c4cccc(CN(C)C)c4)cc23)c(-c2ccc(NC(=O)N(C)C)cc2)n1
In short: as §1

[5] = compound: CN(C)CC(=O)Nc1ccc2[nH]c(=O)c3ccccc3c2c1
In short: as §1

[6] = compound: CN1C2=C(C3=C1C(=O)N(N=C3)CC4=CC(=CC=C4)N)SC(=C2)S(=O)C
In short: as §1

[7] = compound: CN1CCC(CNc2ccc3ncc(-c4cccc(OC(F)(F)F)c4)n3n2)CC1
In short: as §1

[8] = compound: CN1CCN(CCOc2cc(OC3CCOCC3)c3c(Nc4c(Cl)ccc5c4OCO5)ncnc3c2)CC1 [saracatinib]
In short: as §1

[9] = compound: CN1CCN(c2nc(C3=C(c4c[nH]c5ccccc45)C(=O)NC3=O)c3ccccc3n2)CC1 [sotrastaurin]
In short: as §1

[10] = compound: CN1CCc2c(c3ccccc3n2Cc2ccc(C(=O)NO)cc2)C1 [Tubastatin A]
In short: as §1

[11] = compound: CNC(=O)C1=CC=CC=C1NC2=NC(=NC=C2Cl)NC3=C(C=C(C=C3)N4CCOCC4)OC
In short: as §1

[12] = compound: CNC(=O)c1ccc(Nc2ncc(C(F)(F)F)c(NCc3nccnc3N(C)S(C)(=O)=O)n2)cc1 [defactinib]
In short: as §1

[13] = compound: CNCc1ccc(-c2[nH]c3cc(F)cc4c3c2CCNC4=O)cc1 [rucaparib]
In short: as §1

[14] = compound: CNc1nc(-c2ccc3c(N)n[nH]c3c2)cc(N2C[C@@H](C(=O)NC3CCCCC3)CC[C@H]2C)n1
In short: as §1

[15] = compound: COC(=O)N[C@@H](C)CNc1nccc(-c2cn(C(C)C)nc2-c2cc(Cl)cc(NS(C)(=O)=O)c2F)n1 [encorafenib]
In short: as §1

[16] = compound: COC(=O)[C@H](CCSC)NC(=O)C1=C(C=C(C=C1)NC[C@H](CS)N)C2=CC=CC=C2
In short: as §1

[17] = compound: CC[C@@H]1C(=O)N(C)c2cnc(Nc3ccc(C(=O)N[C@H]4CC[C@H](N5CCN(CC6CC6)CC5)CC4)cc3OC)nc2N1C(C)C [volasertib]
In short: as §1

[18] = compound: CCn1c(C(=O)N(C2CC2)C2CC2)cc2c3c(ncn3C)c(Nc3cc(C)n(C)n3)nc21
In short: as §1

[19] = compound: CN(CCOC1=CC=C(C=C1)C[C@H]2C(=O)NC(=O)S2)C3=CC=CC=N3 (racemic) [rosiglitazone]
In short: as §1

[20] = compound: CN1CC[C@H](c2c(O)cc(O)c3c(=O)cc(-c4ccccc4Cl)oc23)[C@H](O)C1 [alvocidib]
In short: as §1

Target | log2 fold change [1] | log2 fold change [2] | log2 fold change [3] | log2 fold change [4] | log2 fold change [5] | log2 fold change [6] | log2 fold change [7] | log2 fold change [8] | log2 fold change [9] | log2 fold change [10] | log2 fold change [11] | log2 fold change [12] | log2 fold change [13] | log2 fold change [14] | log2 fold change [15] | log2 fold change [16] | log2 fold change [17] | log2 fold change [18] | log2 fold change [19] | log2 fold change [20]
FUT8 (UniProt Q9BYC5) | active: -0.327 | inactive: -0.042 | inactive: 0.002 | inactive: 0.06 | inactive: 0.175 | inactive: -0.04 | inactive: -0.057 | inactive: -0.095 | inactive: -0.049 | inactive: 0.02 | inactive: 0.023 | inactive: 0.049 | inactive: -0.037 | inactive: 0.017 | inactive: 0.018 | active: 0.506 | – | – | – | –
GEMIN2 (UniProt O14893) | inactive: -0.203 | inactive: -0.057 | inactive: 0.011 | inactive: 0.013 | inactive: 0.019 | inactive: 0.101 | inactive: 0.031 | inactive: 0.001 | inactive: 0.067 | – | – | inactive: -0.041 | inactive: 0.136 | inactive: 0.013 | inactive: 0.151 | inactive: 0.072 | inactive: -0.061 | – | – | –
GAS6 isoform 1 (UniProt Q14393) | inactive: 0 | – | inactive: 0.243 | inactive: 0.051 | – | – | inactive: 0.143 | – | inactive: -0.104 | – | inactive: 0.067 | – | inactive: -0.073 | – | inactive: -0.026 | – | – | inactive: 0.092 | – | –
GAGE1 (UniProt Q13065) | inactive: -0.081 | inactive: -0.237 | – | – | – | – | – | – | – | – | – | – | inactive: 0.095 | – | inactive: -0.316 | – | – | – | – | –
GBE1 (UniProt Q04446) | inactive: 0.042 | – | inactive: 0.168 | – | inactive: 0.058 | inactive: 0.071 | – | inactive: -0.252 | – | inactive: 0.055 | inactive: -0.027 | inactive: -0.195 | inactive: -0.132 | inactive: 0.076 | inactive: 0.062 | inactive: -0.034 | active: -0.61 | – | – | –
GALNT12 (UniProt Q8IXK2) | inactive: 0.001 | – | inactive: 0.014 | inactive: 0.051 | inactive: -0.041 | inactive: 0.063 | inactive: 0.024 | inactive: -0.227 | inactive: -0.103 | inactive: 0.122 | inactive: -0.106 | inactive: -0.029 | inactive: -0.123 | inactive: -0.137 | inactive: 0.158 | inactive: 0.063 | inactive: -0.38 | inactive: -0.026 | inactive: 0.051 | inactive: -0.164
GBF1 (UniProt Q92538) | inactive: -0.086 | inactive: 0.059 | inactive: -0.007 | inactive: -0.013 | inactive: 0.069 | inactive: 0.081 | inactive: -0.212 | inactive: -0.055 | inactive: -0.103 | inactive: 0.034 | inactive: -0.024 | inactive: -0.031 | inactive: 0.044 | inactive: 0.059 | inactive: 0.104 | inactive: -0.015 | active: -0.474 | – | – | –
GGACT (UniProt Q9BVM4) | inactive: 0 | – | – | – | – | – | – | – | – | – | – | – | inactive: 0.084 | – | inactive: -0.318 | – | – | – | – | –
GATAD2B (UniProt Q8WXI9) | inactive: -0.023 | – | inactive: 0.104 | – | inactive: 0 | – | – | – | inactive: -0.099 | inactive: 0.001 | inactive: -0.015 | inactive: -0.07 | inactive: 0.125 | – | inactive: -0.217 | inactive: 0.012 | inactive: -0.117 | inactive: 0.005 | – | –
FYTTD1 (UniProt Q96QD9) | inactive: 0.18 | – | inactive: -0.18 | inactive: -0.064 | – | – | inactive: 0.267 | – | – | inactive: 0.008 | – | – | inactive: -0.044 | – | inactive: 0.197 | – | – | – | – | inactive: 0.256
FRMPD3 (UniProt Q5JV73) | inactive: -0.1 | – | inactive: -0.152 | – | inactive: -0.18 | – | – | – | – | inactive: -0.15 | inactive: 0.052 | inactive: 0.003 | inactive: 0.036 | – | inactive: 0.058 | inactive: 0.09 | – | inactive: 0.007 | inactive: -0.037 | inactive: 0.152
FRY (UniProt Q5TBA9) | inactive: 0.148 | – | inactive: -0.041 | inactive: 0.375 | inactive: -0.012 | – | inactive: -0.179 | – | inactive: -0.061 | inactive: 0.176 | inactive: -0.249 | inactive: -0.043 | inactive: 0.049 | – | inactive: 0.286 | inactive: -0.038 | – | inactive: 0.068 | inactive: -0.323 | –
GABPB1 isoform 3 (UniProt Q06547) | – | – | – | inactive: 0.045 | inactive: 0.013 | inactive: -0.032 | inactive: 0.054 | inactive: -0.086 | – | inactive: 0.034 | – | inactive: -0.316 | – | inactive: 0.114 | – | inactive: -0.001 | inactive: -0.285 | – | inactive: 0.064 | inactive: -0.414
FUT4 (UniProt P22083) | – | – | – | – | – | – | – | – | – | inactive: 0.227 | – | – | – | – | – | – | – | – | – | –
GDI2 (UniProt Q5SX86) | – | – | inactive: -0.069 | – | – | – | – | – | – | – | inactive: 0.199 | – | – | – | – | – | – | inactive: 0.14 | inactive: 0.223 | –
GANC (UniProt Q8TET4) | – | inactive: 0.077 | – | – | – | – | – | – | – | – | – | – | – | – | – | – | – | – | – | –
FZD5 (UniProt Q13467) | – | – | inactive: -0.091 | – | – | – | – | – | inactive: 0.173 | inactive: -0.026 | inactive: -0.127 | – | – | – | – | – | inactive: 0.277 | inactive: -0.132 | inactive: 0.075 | –
FPGS (UniProt Q05932) | – | – | inactive: -0.19 | inactive: -0.056 | inactive: 0.038 | inactive: -0.032 | inactive: 0.039 | inactive: -0.186 | inactive: 0.025 | – | inactive: 0.074 | inactive: -0.016 | – | inactive: -0.2 | – | inactive: 0.067 | inactive: -0.244 | inactive: -0.032 | inactive: 0.141 | inactive: -0.131
GALNT10 (UniProt Q86SR1) | – | inactive: -0.028 | inactive: 0.008 | inactive: 0.058 | – | inactive: -0.099 | inactive: 0.188 | inactive: 0.052 | inactive: -0.065 | – | – | – | – | inactive: 0.062 | – | – | inactive: -0.072 | – | inactive: 0.134 | inactive: -0.001

Record cards, from the list above. Order of values: log2 fold change [1]	log2 fold change [2]	log2 fold change [3]	log2 fold change [4]	log2 fold change [5]	log2 fold change [6]	log2 fold change [7]	log2 fold change [8]	log2 fold change [9]	log2 fold change [10]	log2 fold change [11]	log2 fold change [12]	log2 fold change [13]	log2 fold change [14]	log2 fold change [15]	log2 fold change [16]	log2 fold change [17]	log2 fold change [18]	log2 fold change [19]	log2 fold change [20]
GALNT10 (UniProt Q86SR1) is entered as –	inactive: -0.028	inactive: 0.008	inactive: 0.058	–	inactive: -0.099	inactive: 0.188	inactive: 0.052	inactive: -0.065	–	–	–	–	inactive: 0.062	–	–	inactive: -0.072	–	inactive: 0.134	inactive: -0.001
GBE1 (UniProt Q04446) is entered as inactive: 0.042	–	inactive: 0.168	–	inactive: 0.058	inactive: 0.071	–	inactive: -0.252	–	inactive: 0.055	inactive: -0.027	inactive: -0.195	inactive: -0.132	inactive: 0.076	inactive: 0.062	inactive: -0.034	active: -0.61	–	–	–
